This note sets out measurements from publication PMC11061277.

Protein sequences, listed by entry. Tags and fused reporters are not part of them.
UniProt P07355: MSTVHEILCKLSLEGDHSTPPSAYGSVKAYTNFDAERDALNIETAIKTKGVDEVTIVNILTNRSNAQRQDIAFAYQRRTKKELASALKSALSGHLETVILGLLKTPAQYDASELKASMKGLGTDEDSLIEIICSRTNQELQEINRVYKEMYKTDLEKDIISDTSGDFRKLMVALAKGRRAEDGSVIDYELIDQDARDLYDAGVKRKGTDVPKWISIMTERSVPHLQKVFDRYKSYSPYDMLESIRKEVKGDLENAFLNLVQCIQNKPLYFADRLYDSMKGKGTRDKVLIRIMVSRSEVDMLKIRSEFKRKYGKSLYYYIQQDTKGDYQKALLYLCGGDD

No constants are given. Whether binding was seen depends on the method and setting. In cells and extracts the contact can be indirect. Some results given as binding are weak or reduced against the parent protein; the word gives no strength.

Experiment [1] deals with T1, tripartite motif containing 65 (TRIM65) (human (endogenous in A549 and H1299)) (UniProt Q6PJ69).
T1 sequence: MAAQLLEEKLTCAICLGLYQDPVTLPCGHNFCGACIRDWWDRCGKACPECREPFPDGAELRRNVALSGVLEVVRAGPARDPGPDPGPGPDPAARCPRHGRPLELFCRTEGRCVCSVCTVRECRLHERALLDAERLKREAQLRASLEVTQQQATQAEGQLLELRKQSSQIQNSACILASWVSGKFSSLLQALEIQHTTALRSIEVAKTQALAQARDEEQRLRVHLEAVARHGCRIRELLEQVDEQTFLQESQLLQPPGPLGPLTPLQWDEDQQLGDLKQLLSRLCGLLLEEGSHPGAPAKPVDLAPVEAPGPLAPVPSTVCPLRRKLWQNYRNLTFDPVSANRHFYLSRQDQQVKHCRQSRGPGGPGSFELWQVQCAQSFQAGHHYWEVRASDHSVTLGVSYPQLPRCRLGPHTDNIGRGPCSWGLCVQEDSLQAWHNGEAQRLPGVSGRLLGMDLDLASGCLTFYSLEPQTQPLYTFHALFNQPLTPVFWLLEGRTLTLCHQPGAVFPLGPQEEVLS
The experiment in a line: co-IP; endogenous IP from whole-cell lysates (IP lysis buffer) of A549 and H1299 cells with antibodies against TRIM65 or ANXA2 or normal IgG, Protein A/G PLUS-Agarose, western blot; also in cells stably overexpressing lncRNA HAR1A against vector cells (more ANXA2 with anti-TRIM65). In general terms: A western blot detects proteins with antibodies after separation by electrophoresis.

For experiment [2], the target named is annexin 2 (ANXA2) (human (endogenous in A549 and H1299)) (UniProt P07355). The description is as above.

Regarding “annexin 2 (ANXA2) (from UniProt P07355 1-339)”, the binding result in experiment [1] is on record as “binds”.

B1: tripartite motif containing 65 (TRIM65) (protein, UniProt Q6PJ69 1-517)
chain: T1 sequence
B1: the binding result in experiment [2] is listed as “binds”.
